# In the supplement of paper PMC4604168 (melanoma cell lines):
# This is one part of the list. Single values are uncertain, as repeats are few or missing.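 Imaging used 1,536-well plates; nuclei positive for cleaved PARP by antibody were divided by total DNA-stained nuclei to yield the apoptosis fraction. Doses for screening kept most cells viable, and cell lines differ markedly in resting and induced cleaved-PARP levels.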
# Legend:
# Test in all cases: cleaved PARP positive nuclei fraction relative to DMSO control; melanoma cells; higher = more apoptosis
# Settings in all cases: library dose: low library concentration; 72 h
# MZ2-MEL = system: MZ2-MEL
# MeWo = system: MeWo
# RPMI7951 = system: RPMI7951
# RVH-421 = system: RVH-421
# SkMel28 = system: SkMel28
# SkMel2 = system: SkMel2
# SkMel30 = system: SkMel30
# UACC62 = system: UACC62
Compound,cleaved PARP positive nuclei fraction (MZ2-MEL),cleaved PARP positive nuclei fraction (MeWo),cleaved PARP positive nuclei fraction (RPMI7951),cleaved PARP positive nuclei fraction (RVH-421),cleaved PARP positive nuclei fraction (SkMel28),cleaved PARP positive nuclei fraction (SkMel2),cleaved PARP positive nuclei fraction (SkMel30),cleaved PARP positive nuclei fraction (UACC62)
"Cn1cnc2c(F)c(Nc3ccc(Br)cc3Cl)c(C(=O)NOCCO)cc21 [selumetinib] + Nc1cccc2c1CN(C1CCC(=O)NC1=O)C2=O [lenalidomide] (first compound 0.015 µM, partner dose 1 µM)",290%,108%,120%,121%,161%,109%,240%,131%
"Cn1cnc2c(F)c(Nc3ccc(Br)cc3Cl)c(C(=O)NOCCO)cc21 [selumetinib] + CC(=O)c1c(C)c2cnc(Nc3ccc(N4CCNCC4)cn3)nc2n(C2CCCC2)c1=O [palbociclib] (first compound 0.015 µM, partner dose 0.04 µM)",211%,42.8%,113%,144%,159%,93%,238%,324%
"COc1ccc(C2=N[C@@H](c3ccc(Cl)cc3)[C@@H](c3ccc(Cl)cc3)N2C(=O)N2CCNC(=O)C2)c(OC(C)C)c1 [Nutlin-3] + CS(=O)(=O)c1ccc(C(=O)Nc2ccc(Cl)c(-c3ccccn3)c2)c(Cl)c1 [vismodegib] (first compound 0.1 µM, partner dose 1 µM)",91.6%,137%,102%,112%,77.7%,66.8%,21%,92.6%
"CCN(CC)CCNC(=O)c1c(C)[nH]c(/C=C2\C(=O)Nc3ccc(F)cc32)c1C [sunitinib] + CC(=O)O[C@@]12CO[C@@H]1C[C@H](O)[C@@]1(C)C(=O)[C@H](O)C3=C(C)[C@@H](OC(=O)[C@H](O)[C@@H](NC(=O)OC(C)(C)C)c4ccccc4)C[C@@](O)([C@@H](OC(=O)c4ccccc4)[C@H]21)C3(C)C [Docetaxel] (first compound 0.4 µM, partner dose 0.0001 µM)",523%,496%,206%,307%,549%,370%,643%,193%
"C[C@@H](N)c1ccc(C(=O)Nc2ccnc3[nH]ccc23)cc1 + CN1CCN(c2ccc3nc(-c4c(N)c5c(F)cccc5[nH]c4=O)[nH]c3c2)CC1 [Dovitinib] (first compound 0.4 µM, partner dose 0.1 µM)",271%,108%,146%,59.3%,98.1%,159%,112%,60.1%
"Cn1cnc2c(F)c(Nc3ccc(Br)cc3Cl)c(C(=O)NOCCO)cc21 [selumetinib] + CN1CCN(c2ccc3nc(-c4c(N)c5c(F)cccc5[nH]c4=O)[nH]c3c2)CC1 [Dovitinib] (first compound 0.015 µM, partner dose 0.1 µM)",179%,330%,59%,184%,74.7%,183%,110%,49.6%
"C[C@@H](N)c1ccc(C(=O)Nc2ccnc3[nH]ccc23)cc1 + O=C(O)c1ccc2c(c1)nc(Nc1cccc(Cl)c1)c1ccncc12 [CX4945] (first compound 0.4 µM, partner dose 0.4 µM)",278%,194%,291%,128%,108%,125%,56%,118%
"Cn1sc(=O)n(Cc2ccccc2)c1=O + Cc1cc(Nc2cc(N3CCN(C)CC3)nc(/C=C/c3ccccc3)n2)n[nH]1 [ENMD2076] (first compound 0.4 µM, partner dose 0.04 µM)",117%,38.8%,67.1%,100%,40.1%,75.9%,86.1%,42.3%
"NC(=O)c1ccc(N(C(N)=O)c2c(F)cccc2F)nc1-c1ccc(F)cc1F + CCCS(=O)(=O)Nc1ccc(F)c(C(=O)c2c[nH]c3ncc(Cl)cc23)c1F [PLX4720] (first compound 0.4 µM, partner dose 0.08 µM)",50.8%,87.4%,95.4%,190%,76.2%,47%,79.5%,119%
"Cn1cnc2c(F)c(Nc3ccc(Br)cc3Cl)c(C(=O)NOCCO)cc21 [selumetinib] + NC1(c2ccc(-c3nc4ccn5c(=O)[nH]nc5c4cc3-c3ccccc3)cc2)CCC1 [MK2206] (first compound 0.015 µM, partner dose 0.4 µM)",238%,178%,135%,88.3%,86.3%,83.7%,68.2%,169%
"CS(=O)(=O)c1ccc(C(=O)Nc2ccc(Cl)c(-c3ccccn3)c2)c(Cl)c1 [vismodegib] + NC1(c2ccc(-c3nc4ccn5c(=O)[nH]nc5c4cc3-c3ccccc3)cc2)CCC1 [MK2206] (first compound 1 µM, partner dose 0.4 µM)",62.5%,143%,95.6%,146%,95.8%,88.3%,260%,209%
"CCN(CC)CCNC(=O)c1c(C)[nH]c(/C=C2\C(=O)Nc3ccc(F)cc32)c1C [sunitinib] + CCCCCCCCc1ccc(CCC(N)(CO)CO)cc1 [fingolimod] (first compound 0.4 µM, partner dose 2 µM)",128%,108%,171%,91.7%,99.6%,27.7%,49%,58.1%
"Cn1sc(=O)n(Cc2ccccc2)c1=O + CC(=O)c1c(C)c2cnc(Nc3ccc(N4CCNCC4)cn3)nc2n(C2CCCC2)c1=O [palbociclib] (first compound 0.4 µM, partner dose 0.04 µM)",109%,33.3%,113%,54.9%,67.8%,75.7%,113%,138%
"COc1ccc(C2=N[C@@H](c3ccc(Cl)cc3)[C@@H](c3ccc(Cl)cc3)N2C(=O)N2CCNC(=O)C2)c(OC(C)C)c1 [Nutlin-3] + CNC(=O)c1cc(Oc2ccc(NC(=O)Nc3ccc(Cl)c(C(F)(F)F)c3)cc2)ccn1 [sorafenib] (first compound 0.1 µM, partner dose 0.4 µM)",53.7%,50.4%,80.1%,234%,83.6%,61.6%,87.6%,82.4%
"CS(=O)(=O)c1ccc(C(=O)Nc2ccc(Cl)c(-c3ccccn3)c2)c(Cl)c1 [vismodegib] + Cn1c(Nc2ccc(C(F)(F)F)cc2)nc2cc(Oc3ccnc(-c4ncc(C(F)(F)F)[nH]4)c3)ccc21 [CHIR265] (first compound 1 µM, partner dose 0.08 µM)",113%,234%,213%,102%,122%,260%,42.8%,152%
"COc1ccc(C2=N[C@@H](c3ccc(Cl)cc3)[C@@H](c3ccc(Cl)cc3)N2C(=O)N2CCNC(=O)C2)c(OC(C)C)c1 [Nutlin-3] + C[C@@H](Oc1cc(-c2cnn(C3CCNCC3)c2)cnc1N)c1c(Cl)ccc(F)c1Cl [Crizotinib] (first compound 0.1 µM, partner dose 0.2 µM)",57.8%,80.2%,21.4%,117%,21.5%,118%,70.3%,196%
"Cn1cnc2c(F)c(Nc3ccc(Br)cc3Cl)c(C(=O)NOCCO)cc21 [selumetinib] + CCN(CC)CCNC(=O)c1c(C)[nH]c(/C=C2\C(=O)Nc3ccc(F)cc32)c1C [sunitinib] (first compound 0.015 µM, partner dose 0.4 µM)",303%,246%,68.5%,71.3%,124%,112%,149%,309%
"CS(=O)(=O)c1ccc(C(=O)Nc2ccc(Cl)c(-c3ccccn3)c2)c(Cl)c1 [vismodegib] + C=CCNC1=C2C[C@@H](C)C[C@H](OC)[C@H](O)[C@@H](C)/C=C(\C)[C@H](OC(N)=O)[C@@H](OC)/C=C\C=C(/C)C(=O)NC(=CC1=O)C2=O [Tanespimycin] (first compound 1 µM, partner dose 0.002 µM)",116%,133%,68.2%,59.6%,57.5%,68.8%,19.2%,60.6%
"C[C@]1(O)C[C@@H](c2nc(-c3ccc4ccc(-c5ccccc5)nc4c3)c3c(N)nccn32)C1 + Nc1cccc2c1CN(C1CCC(=O)NC1=O)C2=O [lenalidomide] (first compound 0.4 µM, partner dose 1 µM)",196%,120%,132%,174%,329%,118%,218%,210%
"CC1(C)CCC(c2ccc(Cl)cc2)=C(CN2CCN(c3ccc(C(=O)NS(=O)(=O)c4ccc(N[C@H](CCN5CCOCC5)CSc5ccccc5)c(S(=O)(=O)C(F)(F)F)c4)cc3)CC2)C1 + CCCS(=O)(=O)Nc1ccc(F)c(C(=O)c2c[nH]c3ncc(Cl)cc23)c1F [PLX4720] (first compound 0.4 µM, partner dose 0.08 µM)",217%,267%,210%,219%,55.7%,99.4%,354%,278%
"NC(=O)c1ccc(N(C(N)=O)c2c(F)cccc2F)nc1-c1ccc(F)cc1F + CNC(=O)c1cc(Oc2ccc(NC(=O)Nc3ccc(Cl)c(C(F)(F)F)c3)cc2)ccn1 [sorafenib] (first compound 0.4 µM, partner dose 0.4 µM)",72.2%,130%,87.1%,87.6%,87.7%,89.9%,19.8%,57.5%
"Cn1cnc2c(F)c(Nc3ccc(Br)cc3Cl)c(C(=O)NOCCO)cc21 [selumetinib] + Cn1sc(=O)n(Cc2ccccc2)c1=O [TDZD-8] (first compound 0.015 µM, partner dose 0.4 µM)",187%,62.1%,151%,53.6%,99.2%,136%,87.4%,144%

# A stretch taken from the entries so far, for reference:
Compound,cleaved PARP positive nuclei fraction (MZ2-MEL),cleaved PARP positive nuclei fraction (MeWo),cleaved PARP positive nuclei fraction (RPMI7951),cleaved PARP positive nuclei fraction (RVH-421),cleaved PARP positive nuclei fraction (SkMel28),cleaved PARP positive nuclei fraction (SkMel2),cleaved PARP positive nuclei fraction (SkMel30),cleaved PARP positive nuclei fraction (UACC62)
"Cn1cnc2c(F)c(Nc3ccc(Br)cc3Cl)c(C(=O)NOCCO)cc21 [selumetinib] + CN1CCN(c2ccc3nc(-c4c(N)c5c(F)cccc5[nH]c4=O)[nH]c3c2)CC1 [Dovitinib] (first compound 0.015 µM, partner dose 0.1 µM)",179%,330%,59%,184%,74.7%,183%,110%,49.6%
"C[C@@H](N)c1ccc(C(=O)Nc2ccnc3[nH]ccc23)cc1 + O=C(O)c1ccc2c(c1)nc(Nc1cccc(Cl)c1)c1ccncc12 [CX4945] (first compound 0.4 µM, partner dose 0.4 µM)",278%,194%,291%,128%,108%,125%,56%,118%
